One molecule from patent US20240382619A1 can be followed below.

Sequences of proteins named here, by UniProt entry; tags and fusion partners are left off. Residues count along the entry.
UniProt P15328, residues 25-234: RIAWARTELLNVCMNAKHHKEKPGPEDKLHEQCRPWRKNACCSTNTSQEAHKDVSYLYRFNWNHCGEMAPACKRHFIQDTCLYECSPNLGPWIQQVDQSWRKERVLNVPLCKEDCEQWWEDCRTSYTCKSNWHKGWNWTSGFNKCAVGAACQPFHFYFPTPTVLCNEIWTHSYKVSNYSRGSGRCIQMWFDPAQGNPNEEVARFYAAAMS

Results are given in words; binding and its absence hold for the method and conditions named. Some results given as binding are weak or reduced against the parent protein; the word gives no strength.

Assay [1] has as its target folate receptor on SKOV3 ovarian cancer cells (UniProt P15328). The experiment in a line: fluorescence microscopy (Cytation 5) of SKOV3 cells incubated 24 h with PKH67-stained exosomes displaying the peptide.
The target is the same in assay [2]. Put plainly: fluorescence microscopy of SKOV3 cells treated with PKH67-stained exosomes.

In the case of MHTAPGWGYNLS (peptide, not shown: small tags and cut ends; large carriers), the binding entry in assay [1] and in assay [2] was “binds” in each case.
